In patent publication US20240077423A1, “A TRANSCRIPTIONAL REGULATOR SPECIFICALLY RESPONDING TO D-2-HYDROXYGLUTARATE AND APPLICATION THEREOF” (SHANDONG UNIVERSITY, priority 2021, published 2024):
For at least one compound, name, drawing or mass did not settle the structure.

Tested on: binding of DhdR to dhdO
Assay: Analysis of DhdR effector by electrophoretic mobility shift assays
Parameters: species or system Achromobacter denitrificans NBRC 15125
Settings: 40 mM compound, 70 nM DhdR, dhdO target DNA, EMSA, FIG. 2
Method: DhdR is incubated with different compounds (D-2-HG, L-2-HG, D-malate, D-lactate, glutarate, 2-ketoglutarate, or pyruvate) respectively. Then, the target DNA fragment dhdO is added. The influence on the binding capacity of DhdR and the target DNA fragment dhdO in the presence of the different compounds is analyzed through electrophoresis separation, staining, and imaging.
The dhdO nucleotide fragment obtained in step (2) above was diluted to 100 nM using binding buffer, and the purified DhdR protein was diluted to 2000 nM. 70 nM purified DhdR protein was first incubated with 40 mM different compounds (D-2-HG, L-2-HG, D-malate, D-lactate, glutarate, 2-ketoglutarate, or pyruvate) at 30° C. for 15 minutes in 18 μL binding buffer. Subsequently, 2 μL of 100 nM dhdO was added and incubated at 30° C. for another 30 min. 10 μL of the sample was analyzed by electrophoresis with 6% native polyacrylamide at 170 V for 45 min on ice. The gel was then stained with SYBR Green I for 30 min avoiding light and photographed by gel imager. […] DhdR can bind to dhdO in the absence of D-2-HG. However, when D-2-HG is present, DhdR will be dissociated from dhdO.

## O=C(O)CCCC(=O)O [glutarate]
  effect on the binding of DhdR to dhdO: could not interfere with the binding of DhdR to dhdO
